Common to all, as to assay type: cell-based
The subject of one test is MCF7 (ER+) cells. Description: Cell growth inhibition (CCK8 cytotoxicity assay), MCF7. As to conditions: Homo sapiens, 48 h treatment, read-out: Average EC50 ± SD, cell growth inhibition. On the technique in general: Tetrazolium assays rely on reduction of a dye to a coloured formazan, in cell work by metabolically active cells.
The subject of the next test is T47D (ER+) cells. Description: Cell growth inhibition (CCK8 cytotoxicity assay), T47D. As to conditions: Homo sapiens, 48 h treatment, read-out: Average EC50 ± SD, cell growth inhibition. The text has this: (§1) Prism-GraphPad software was used to analyze data.
In the next test the test system is MDA-MB-231 (TNB) cells. Description: Cell growth inhibition (CCK8 cytotoxicity assay), MDA-MB-231. The following applies: 48 h treatment, read-out: Average EC50 ± SD, cell growth inhibition.
Source text: as §1

A further test concerns HCC-1937 (TNB) cells. Description: Cell growth inhibition (CCK8 cytotoxicity assay), HCC-1937. As to conditions: Homo sapiens, HCC1937, 48 h treatment, read-out: Average EC50 ± SD, cell growth inhibition.
Source text: as §1

The structures appear in SMILES notation. Like-named read-outs stand apart in the source and are kept apart here.

One may read the EC50 as the midpoint of the concentration-response curve. For the compound `O=C(CCCCCCC(=O)Nc1ccccc1)NO` [SAHA, reference compound], the EC50 with MCF7 (ER+) cells stood at 3.65 ± 0.151 µM; in the test with T47D (ER+) cells, 3.9 ± 0.469 µM; in the test on MDA-MB-231 (TNB) cells it was 2.41 ± 1.51 µM; in the test with MDA-MB-231 (TNB) cells (Homo sapiens, MDA-MB-231, 48 h), 2.4 µM; in the test with HCC-1937 (TNB) cells, 11.3 ± 1.87 µM.

Values taken from publication PMC11249239 (PLOS ONE, 2024).
